# Test results published in the supplement of paper PMC10849652.
# Protein sequences, listed by entry. Tags and fused reporters are not part of them. Lines headed by an entry give the natural chain unless they say otherwise; changes in a name come on top.
# UniProt Q8IW19: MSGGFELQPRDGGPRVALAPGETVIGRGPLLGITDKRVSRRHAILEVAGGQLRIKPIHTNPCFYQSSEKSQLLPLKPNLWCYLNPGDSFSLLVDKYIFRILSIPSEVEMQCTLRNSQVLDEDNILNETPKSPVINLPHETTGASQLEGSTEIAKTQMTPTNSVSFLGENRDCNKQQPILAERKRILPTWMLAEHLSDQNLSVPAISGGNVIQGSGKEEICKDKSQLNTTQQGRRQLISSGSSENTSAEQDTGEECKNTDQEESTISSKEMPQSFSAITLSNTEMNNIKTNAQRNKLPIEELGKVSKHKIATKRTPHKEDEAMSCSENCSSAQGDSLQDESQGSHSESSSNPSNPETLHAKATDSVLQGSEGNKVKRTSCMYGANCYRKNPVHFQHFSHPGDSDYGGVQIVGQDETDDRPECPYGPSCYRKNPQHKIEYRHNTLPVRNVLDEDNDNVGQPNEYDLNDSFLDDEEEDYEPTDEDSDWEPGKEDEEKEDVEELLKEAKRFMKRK
# UniProt P05090: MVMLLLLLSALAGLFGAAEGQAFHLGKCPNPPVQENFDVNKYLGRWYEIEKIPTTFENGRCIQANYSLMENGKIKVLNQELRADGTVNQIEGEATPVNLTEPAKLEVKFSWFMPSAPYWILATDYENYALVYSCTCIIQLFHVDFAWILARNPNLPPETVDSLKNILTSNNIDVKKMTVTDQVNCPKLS
# UniProt P42331: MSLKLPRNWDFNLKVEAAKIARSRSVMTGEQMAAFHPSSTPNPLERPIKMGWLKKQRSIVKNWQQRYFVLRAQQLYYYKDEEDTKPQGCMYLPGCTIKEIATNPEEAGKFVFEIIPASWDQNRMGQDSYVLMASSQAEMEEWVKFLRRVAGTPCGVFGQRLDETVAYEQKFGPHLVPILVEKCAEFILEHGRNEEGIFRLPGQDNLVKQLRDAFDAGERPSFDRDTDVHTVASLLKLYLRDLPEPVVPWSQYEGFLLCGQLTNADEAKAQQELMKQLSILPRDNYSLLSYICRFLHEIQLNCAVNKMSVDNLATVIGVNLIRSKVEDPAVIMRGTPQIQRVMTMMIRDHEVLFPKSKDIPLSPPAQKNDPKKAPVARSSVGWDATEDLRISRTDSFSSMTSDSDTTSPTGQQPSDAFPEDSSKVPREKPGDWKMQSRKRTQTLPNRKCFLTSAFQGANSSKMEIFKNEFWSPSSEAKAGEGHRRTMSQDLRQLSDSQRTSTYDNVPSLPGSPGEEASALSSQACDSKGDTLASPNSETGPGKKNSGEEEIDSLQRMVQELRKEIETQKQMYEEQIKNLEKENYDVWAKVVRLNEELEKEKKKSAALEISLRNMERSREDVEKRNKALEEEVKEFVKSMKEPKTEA
# UniProt O14791: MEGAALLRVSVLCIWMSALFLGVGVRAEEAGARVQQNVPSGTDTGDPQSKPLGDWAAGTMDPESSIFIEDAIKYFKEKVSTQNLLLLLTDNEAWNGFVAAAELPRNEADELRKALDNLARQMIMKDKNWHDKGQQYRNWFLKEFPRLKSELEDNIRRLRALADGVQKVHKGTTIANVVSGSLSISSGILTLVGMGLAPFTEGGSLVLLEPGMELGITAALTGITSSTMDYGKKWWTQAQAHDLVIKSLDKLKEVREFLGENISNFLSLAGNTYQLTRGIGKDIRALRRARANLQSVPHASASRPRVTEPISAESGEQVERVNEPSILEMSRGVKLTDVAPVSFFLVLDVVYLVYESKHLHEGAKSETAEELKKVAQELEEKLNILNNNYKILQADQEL
# UniProt Q6UB99: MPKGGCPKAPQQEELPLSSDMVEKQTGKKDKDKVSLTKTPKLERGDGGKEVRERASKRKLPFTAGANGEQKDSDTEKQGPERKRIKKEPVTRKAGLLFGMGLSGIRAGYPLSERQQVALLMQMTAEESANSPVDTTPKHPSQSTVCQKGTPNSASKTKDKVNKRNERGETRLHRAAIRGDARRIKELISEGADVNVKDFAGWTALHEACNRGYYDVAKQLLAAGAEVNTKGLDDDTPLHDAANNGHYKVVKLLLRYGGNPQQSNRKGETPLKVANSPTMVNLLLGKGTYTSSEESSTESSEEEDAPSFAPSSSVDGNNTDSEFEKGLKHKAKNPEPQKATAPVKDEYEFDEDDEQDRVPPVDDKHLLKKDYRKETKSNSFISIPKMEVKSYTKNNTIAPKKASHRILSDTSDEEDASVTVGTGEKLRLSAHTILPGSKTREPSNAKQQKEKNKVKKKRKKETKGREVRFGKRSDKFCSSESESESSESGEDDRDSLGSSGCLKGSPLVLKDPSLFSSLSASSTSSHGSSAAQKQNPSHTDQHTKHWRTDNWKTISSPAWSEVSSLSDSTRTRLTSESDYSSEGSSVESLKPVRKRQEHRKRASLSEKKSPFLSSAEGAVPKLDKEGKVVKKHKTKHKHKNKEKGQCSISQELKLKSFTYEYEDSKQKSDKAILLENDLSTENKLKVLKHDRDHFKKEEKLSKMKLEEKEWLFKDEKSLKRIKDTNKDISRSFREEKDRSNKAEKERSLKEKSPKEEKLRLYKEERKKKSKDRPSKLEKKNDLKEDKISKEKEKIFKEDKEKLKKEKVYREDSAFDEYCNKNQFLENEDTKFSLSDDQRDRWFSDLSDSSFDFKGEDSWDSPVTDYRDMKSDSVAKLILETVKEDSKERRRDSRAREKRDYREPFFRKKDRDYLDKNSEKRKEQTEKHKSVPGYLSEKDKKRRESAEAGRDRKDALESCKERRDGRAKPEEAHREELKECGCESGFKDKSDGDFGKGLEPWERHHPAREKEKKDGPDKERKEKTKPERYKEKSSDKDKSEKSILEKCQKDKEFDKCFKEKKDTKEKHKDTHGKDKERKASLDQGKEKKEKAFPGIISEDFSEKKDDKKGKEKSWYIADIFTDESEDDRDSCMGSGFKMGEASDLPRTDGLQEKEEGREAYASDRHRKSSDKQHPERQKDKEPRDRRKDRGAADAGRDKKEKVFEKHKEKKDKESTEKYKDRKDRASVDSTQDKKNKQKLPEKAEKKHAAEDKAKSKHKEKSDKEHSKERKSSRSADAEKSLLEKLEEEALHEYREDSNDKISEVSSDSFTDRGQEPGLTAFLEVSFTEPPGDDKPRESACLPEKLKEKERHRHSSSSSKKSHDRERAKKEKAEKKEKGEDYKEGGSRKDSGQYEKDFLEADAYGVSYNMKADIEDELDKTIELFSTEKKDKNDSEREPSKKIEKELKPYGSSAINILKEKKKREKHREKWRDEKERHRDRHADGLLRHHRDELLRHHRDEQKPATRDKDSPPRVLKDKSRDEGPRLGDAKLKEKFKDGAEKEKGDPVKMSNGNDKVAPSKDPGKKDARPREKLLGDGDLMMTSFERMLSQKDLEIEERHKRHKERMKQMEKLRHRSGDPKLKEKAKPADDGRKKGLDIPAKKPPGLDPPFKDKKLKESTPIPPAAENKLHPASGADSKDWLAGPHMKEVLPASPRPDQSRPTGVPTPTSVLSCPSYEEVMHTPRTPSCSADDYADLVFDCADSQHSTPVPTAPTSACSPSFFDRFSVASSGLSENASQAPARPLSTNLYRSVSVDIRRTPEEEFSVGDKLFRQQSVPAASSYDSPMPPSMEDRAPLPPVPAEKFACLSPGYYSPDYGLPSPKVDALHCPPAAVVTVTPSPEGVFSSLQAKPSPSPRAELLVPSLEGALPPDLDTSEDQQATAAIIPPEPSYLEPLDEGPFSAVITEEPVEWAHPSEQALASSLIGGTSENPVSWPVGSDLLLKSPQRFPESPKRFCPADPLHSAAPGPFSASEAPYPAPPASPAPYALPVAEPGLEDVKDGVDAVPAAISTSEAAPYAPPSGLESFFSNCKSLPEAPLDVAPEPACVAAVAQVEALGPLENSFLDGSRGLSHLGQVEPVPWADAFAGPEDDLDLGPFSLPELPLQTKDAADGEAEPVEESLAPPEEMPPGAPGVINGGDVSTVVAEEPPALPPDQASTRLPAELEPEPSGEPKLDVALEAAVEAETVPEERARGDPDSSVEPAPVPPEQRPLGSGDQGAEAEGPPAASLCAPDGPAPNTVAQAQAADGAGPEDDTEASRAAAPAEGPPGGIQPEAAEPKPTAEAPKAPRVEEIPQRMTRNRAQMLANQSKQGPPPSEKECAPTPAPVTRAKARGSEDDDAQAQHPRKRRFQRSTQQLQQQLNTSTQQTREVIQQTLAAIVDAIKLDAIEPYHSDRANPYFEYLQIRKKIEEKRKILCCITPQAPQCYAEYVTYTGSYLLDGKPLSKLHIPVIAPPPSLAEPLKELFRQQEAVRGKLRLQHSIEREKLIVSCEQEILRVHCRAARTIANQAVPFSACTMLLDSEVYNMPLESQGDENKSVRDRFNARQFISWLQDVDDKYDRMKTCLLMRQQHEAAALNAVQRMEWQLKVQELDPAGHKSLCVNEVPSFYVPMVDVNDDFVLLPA
# UniProt Q8WW43, whole entry, looked up: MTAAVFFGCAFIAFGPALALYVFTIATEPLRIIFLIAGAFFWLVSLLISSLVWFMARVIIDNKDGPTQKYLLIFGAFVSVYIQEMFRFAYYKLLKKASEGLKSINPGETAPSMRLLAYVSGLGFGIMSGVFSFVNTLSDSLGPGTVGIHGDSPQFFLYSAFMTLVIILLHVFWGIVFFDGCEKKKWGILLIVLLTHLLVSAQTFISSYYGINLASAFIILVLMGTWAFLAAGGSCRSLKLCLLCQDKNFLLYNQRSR
# UniProt P02655: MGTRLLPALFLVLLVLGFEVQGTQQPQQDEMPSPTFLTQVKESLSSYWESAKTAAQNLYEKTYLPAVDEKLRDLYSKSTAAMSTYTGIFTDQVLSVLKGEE
# UniProt O15033: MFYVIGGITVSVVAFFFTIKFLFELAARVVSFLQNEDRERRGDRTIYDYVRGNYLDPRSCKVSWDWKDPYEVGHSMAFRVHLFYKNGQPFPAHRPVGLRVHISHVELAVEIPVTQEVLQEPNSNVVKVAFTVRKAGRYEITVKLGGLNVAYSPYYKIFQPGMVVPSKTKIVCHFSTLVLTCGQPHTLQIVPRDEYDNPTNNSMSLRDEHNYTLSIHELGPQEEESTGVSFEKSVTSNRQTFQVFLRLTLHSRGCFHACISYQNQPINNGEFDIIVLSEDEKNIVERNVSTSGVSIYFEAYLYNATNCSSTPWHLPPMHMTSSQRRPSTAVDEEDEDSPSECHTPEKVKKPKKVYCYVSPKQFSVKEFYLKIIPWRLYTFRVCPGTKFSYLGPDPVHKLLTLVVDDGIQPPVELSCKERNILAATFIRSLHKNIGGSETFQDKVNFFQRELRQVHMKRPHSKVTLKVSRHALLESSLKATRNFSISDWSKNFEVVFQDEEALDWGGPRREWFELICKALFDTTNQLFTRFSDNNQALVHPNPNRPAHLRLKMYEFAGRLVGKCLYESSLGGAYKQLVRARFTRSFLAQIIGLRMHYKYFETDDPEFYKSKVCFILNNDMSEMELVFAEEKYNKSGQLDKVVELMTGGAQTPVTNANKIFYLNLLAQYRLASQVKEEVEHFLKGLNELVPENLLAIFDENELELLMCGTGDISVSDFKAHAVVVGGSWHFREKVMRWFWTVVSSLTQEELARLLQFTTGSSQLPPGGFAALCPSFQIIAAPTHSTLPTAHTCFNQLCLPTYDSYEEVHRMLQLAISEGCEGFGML
# Some of the results follow. Residues, ends and D or L forms follow the SMILES beside them. *: point of attachment. Cbz = O=C(OCc1ccccc1)*
# What was measured:
# Assay in all cases: log2 fold change, soluble protein after heating vs DMSO (PISA); higher = thermal stabilisation; K562 cells, 10 uM, 30 min; active = over 0.2 and 3.5 SD of the protein, either way, in both replicates (recomputed)
# [1] = compound: CC(=O)c1cnc2ccc(-c3cc(Cl)c(O)c(Cl)c3)nc2c1N[C@H]1CC[C@H](CN(C)C)CC1
# Method in brief: (§1)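 K562 cells at 2×10^6 cells/mL were given 10 μM compound for 30 min. Aliquots then went through 3 min of heating across 48°C-58°C, were pooled, and were extracted in PBS with 0.5% NP-40 at 4°C, and the supernatant after 21,000xg for 90 min was quantified by TMTpro 16plex LC-MS/MS with channel sums equalised. Thermal stability relative to control samples, from duplicates, is given as log2 fold change.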
# [2] = compound: CC(C)C1=C2N=C(C=C(N2N=C1)NCC3=CC=CC=C3)NCCCCCCN
# Method in brief: as §1
# [3] = compound: CC1=C(C(CC(=O)N1)C2=CC=C(C=C2)C(F)(F)F)C(=O)NC3=C(C=C4C(=C3)C=NN4)F
# Method in brief: as §1
# [4] = compound: CC1=C(C2=C(C=C1)C(=O)C3=CC=CC=C3N2CCCN)C
# Method in brief: as §1
# ibrutinib = compound: C=CC(=O)N1CCC[C@@H](n2nc(-c3ccc(Oc4ccccc4)cc3)c3c(N)ncnc32)C1 [ibrutinib]
# Method in brief: as §1
# [5] = compound: CC(C)(O)CC(=O)NCCn1ccc2ncnc(Nc3ccc(Oc4cccc(C(F)(F)F)c4)c(Cl)c3)c21
# Method in brief: as §1
# ralimetinib = compound: CC(C)(C)Cn1c(N)nc2ccc(-c3[nH]c(C(C)(C)C)nc3-c3ccc(F)cc3)nc21 [ralimetinib]
# Method in brief: as §1
# [6] = compound: CC(C)C[C@@H](C=O)NC(=O)[C@H](CC(C)C)NC(=O)[C@H](CC(C)C)NC(=O)OCc1ccccc1
# Method in brief: as §1
# IRAK-1-4 Inhibitor I = compound: C1COCCN1CCN2C3=CC=CC=C3N=C2NC(=O)C4=CC(=CC=C4)[N+](=O)[O-] [IRAK-1-4 Inhibitor I]
# Method in brief: as §1
# pinometostat = compound: CC(C)N(C[C@H]1O[C@@H](n2cnc3c(N)ncnc32)[C@H](O)[C@@H]1O)[C@H]1C[C@@H](CCc2nc3cc(C(C)(C)C)ccc3[nH]2)C1 [pinometostat]
# Method in brief: as §1
target,measurement,setting,value
APLF (UniProt Q8IW19),log2 fold change,[1],inactive: -0.047
APOD (UniProt P05090),log2 fold change,[1],inactive: -0.08
same,log2 fold change,[2],inactive: 0.077
same,log2 fold change,[3],inactive: -0.562
same,log2 fold change,[4],inactive: 0.513
ARHGAP25 isoform 4 (UniProt P42331),log2 fold change,ibrutinib,inactive: -0.064
same,log2 fold change,[1],inactive: -0.16
same,log2 fold change,[5],inactive: -0.465
same,log2 fold change,[2],active: -0.961
same,log2 fold change,[4],inactive: 0.066
APOL1 isoform 2 (UniProt O14791),log2 fold change,ibrutinib,inactive: 0.163
same,log2 fold change,[3],inactive: -0.065
same,log2 fold change,[4],inactive: -0.258
ANKRD11 (UniProt Q6UB99),log2 fold change,ibrutinib,inactive: 0.098
same,log2 fold change,ralimetinib,inactive: -0.012
same,log2 fold change,[2],inactive: -0.216
same,log2 fold change,[6],inactive: 0.128
same,log2 fold change,[3],inactive: 0.165
APH1B (UniProt Q8WW43),log2 fold change,[1],inactive: -0.009
APOC2 (UniProt P02655),log2 fold change,IRAK-1-4 Inhibitor I,inactive: 0.089
same,log2 fold change,pinometostat,inactive: 0.032
same,log2 fold change,[3],inactive: -0.034
ANKIB1 (UniProt Q9P2G1),log2 fold change,[3],inactive: -0.315
AREL1 (UniProt O15033),log2 fold change,[1],inactive: 0.031

# Some of the entries above, set out differently.
target	measurement	setting	value
ANKRD11 (UniProt Q6UB99)	log2 fold change	[3]	inactive: 0.165
APH1B (UniProt Q8WW43)	log2 fold change	[1]	inactive: -0.009
